Consider six molecules from paper doi:10.1101/2023.01.03.522557.

Sequences of proteins named here, by UniProt entry; tags and fusion partners are left off.
UniProt A2AG58: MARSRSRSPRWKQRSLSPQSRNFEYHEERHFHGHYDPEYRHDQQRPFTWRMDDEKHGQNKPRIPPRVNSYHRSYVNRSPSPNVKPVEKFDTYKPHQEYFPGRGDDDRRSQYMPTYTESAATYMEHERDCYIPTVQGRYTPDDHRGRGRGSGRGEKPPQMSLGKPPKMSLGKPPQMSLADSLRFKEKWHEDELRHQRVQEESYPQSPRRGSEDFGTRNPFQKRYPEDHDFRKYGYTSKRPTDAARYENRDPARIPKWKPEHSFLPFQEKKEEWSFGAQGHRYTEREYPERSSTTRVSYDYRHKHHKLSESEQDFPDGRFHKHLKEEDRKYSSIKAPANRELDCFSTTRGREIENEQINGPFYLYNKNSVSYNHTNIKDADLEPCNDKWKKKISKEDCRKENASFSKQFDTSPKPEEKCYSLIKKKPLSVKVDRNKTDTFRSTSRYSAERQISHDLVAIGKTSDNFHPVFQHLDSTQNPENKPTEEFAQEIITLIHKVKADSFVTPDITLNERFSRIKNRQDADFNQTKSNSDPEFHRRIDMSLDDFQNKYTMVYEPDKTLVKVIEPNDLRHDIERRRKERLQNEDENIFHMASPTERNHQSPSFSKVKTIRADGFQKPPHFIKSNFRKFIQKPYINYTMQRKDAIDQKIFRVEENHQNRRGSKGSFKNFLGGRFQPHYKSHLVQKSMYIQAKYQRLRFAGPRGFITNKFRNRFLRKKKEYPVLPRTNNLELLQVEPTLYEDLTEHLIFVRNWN
UniProt Q91VC3: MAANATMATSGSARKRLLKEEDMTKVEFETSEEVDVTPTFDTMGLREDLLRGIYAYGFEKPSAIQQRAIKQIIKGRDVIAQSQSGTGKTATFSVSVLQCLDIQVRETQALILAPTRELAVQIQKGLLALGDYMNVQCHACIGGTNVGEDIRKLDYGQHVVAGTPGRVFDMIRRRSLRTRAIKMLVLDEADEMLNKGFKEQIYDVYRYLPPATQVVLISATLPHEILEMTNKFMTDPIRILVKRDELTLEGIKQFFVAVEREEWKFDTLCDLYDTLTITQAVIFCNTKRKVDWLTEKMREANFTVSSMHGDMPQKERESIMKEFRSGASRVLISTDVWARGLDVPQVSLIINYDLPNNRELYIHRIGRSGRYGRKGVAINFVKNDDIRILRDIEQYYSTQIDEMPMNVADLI
UniProt Q9QX47: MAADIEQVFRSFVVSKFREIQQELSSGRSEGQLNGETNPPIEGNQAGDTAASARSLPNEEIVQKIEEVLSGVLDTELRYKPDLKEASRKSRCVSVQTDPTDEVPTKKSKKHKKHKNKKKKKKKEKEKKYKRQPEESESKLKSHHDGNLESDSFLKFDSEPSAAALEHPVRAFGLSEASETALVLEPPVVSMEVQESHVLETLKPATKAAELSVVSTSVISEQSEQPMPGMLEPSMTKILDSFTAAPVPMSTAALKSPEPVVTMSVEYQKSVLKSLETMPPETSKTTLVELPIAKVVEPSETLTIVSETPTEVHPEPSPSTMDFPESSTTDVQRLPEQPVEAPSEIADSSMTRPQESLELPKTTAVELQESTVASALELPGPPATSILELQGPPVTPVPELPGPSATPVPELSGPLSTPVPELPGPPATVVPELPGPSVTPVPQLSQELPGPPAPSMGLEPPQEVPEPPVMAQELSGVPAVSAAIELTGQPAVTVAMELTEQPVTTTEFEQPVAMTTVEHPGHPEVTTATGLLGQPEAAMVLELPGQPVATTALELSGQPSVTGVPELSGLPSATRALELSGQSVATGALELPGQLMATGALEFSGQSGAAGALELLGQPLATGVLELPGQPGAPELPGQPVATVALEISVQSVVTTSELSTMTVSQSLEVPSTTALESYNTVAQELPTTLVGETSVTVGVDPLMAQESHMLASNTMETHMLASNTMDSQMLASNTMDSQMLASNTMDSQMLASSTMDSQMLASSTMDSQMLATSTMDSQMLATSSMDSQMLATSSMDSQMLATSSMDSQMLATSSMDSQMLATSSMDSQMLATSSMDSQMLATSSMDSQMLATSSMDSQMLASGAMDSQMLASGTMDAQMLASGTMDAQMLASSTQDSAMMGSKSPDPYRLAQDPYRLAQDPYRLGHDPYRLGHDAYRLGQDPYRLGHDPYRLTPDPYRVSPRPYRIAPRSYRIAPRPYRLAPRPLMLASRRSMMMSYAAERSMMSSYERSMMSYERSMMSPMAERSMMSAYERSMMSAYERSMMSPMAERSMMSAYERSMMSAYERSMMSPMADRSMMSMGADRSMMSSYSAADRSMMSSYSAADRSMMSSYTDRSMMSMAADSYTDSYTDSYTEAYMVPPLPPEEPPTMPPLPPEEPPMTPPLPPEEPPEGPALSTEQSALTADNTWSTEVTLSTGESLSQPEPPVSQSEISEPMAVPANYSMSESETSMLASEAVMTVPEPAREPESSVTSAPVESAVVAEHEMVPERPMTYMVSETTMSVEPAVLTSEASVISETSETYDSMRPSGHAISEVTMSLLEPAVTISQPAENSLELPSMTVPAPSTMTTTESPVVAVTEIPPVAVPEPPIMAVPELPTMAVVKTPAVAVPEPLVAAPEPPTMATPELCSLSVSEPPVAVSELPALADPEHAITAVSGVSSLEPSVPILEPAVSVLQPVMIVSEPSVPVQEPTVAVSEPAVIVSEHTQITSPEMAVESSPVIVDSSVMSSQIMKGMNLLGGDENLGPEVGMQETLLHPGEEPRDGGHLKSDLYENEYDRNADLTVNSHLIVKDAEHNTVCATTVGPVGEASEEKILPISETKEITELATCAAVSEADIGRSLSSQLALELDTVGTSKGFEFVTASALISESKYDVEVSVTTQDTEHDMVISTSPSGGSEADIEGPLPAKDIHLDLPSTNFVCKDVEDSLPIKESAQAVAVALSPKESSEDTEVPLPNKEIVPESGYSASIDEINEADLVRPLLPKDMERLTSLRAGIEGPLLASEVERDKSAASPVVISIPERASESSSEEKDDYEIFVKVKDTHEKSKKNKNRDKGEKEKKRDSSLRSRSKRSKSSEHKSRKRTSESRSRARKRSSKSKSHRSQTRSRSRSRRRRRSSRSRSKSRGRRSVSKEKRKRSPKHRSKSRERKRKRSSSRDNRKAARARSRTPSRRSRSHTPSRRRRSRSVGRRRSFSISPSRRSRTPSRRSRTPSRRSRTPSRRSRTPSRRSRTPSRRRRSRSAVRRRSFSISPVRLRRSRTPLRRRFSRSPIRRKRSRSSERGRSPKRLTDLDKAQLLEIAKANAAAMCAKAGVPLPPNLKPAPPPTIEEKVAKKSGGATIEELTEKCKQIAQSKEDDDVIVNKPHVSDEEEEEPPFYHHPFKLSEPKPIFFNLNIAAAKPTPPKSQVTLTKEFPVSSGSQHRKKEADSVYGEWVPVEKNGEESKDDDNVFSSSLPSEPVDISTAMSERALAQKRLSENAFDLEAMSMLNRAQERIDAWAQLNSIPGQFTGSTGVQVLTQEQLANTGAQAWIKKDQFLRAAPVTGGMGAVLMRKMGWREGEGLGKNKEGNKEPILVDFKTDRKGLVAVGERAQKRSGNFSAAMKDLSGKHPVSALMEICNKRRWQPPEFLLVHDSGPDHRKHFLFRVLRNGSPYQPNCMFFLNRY
UniProt Q8BTI8: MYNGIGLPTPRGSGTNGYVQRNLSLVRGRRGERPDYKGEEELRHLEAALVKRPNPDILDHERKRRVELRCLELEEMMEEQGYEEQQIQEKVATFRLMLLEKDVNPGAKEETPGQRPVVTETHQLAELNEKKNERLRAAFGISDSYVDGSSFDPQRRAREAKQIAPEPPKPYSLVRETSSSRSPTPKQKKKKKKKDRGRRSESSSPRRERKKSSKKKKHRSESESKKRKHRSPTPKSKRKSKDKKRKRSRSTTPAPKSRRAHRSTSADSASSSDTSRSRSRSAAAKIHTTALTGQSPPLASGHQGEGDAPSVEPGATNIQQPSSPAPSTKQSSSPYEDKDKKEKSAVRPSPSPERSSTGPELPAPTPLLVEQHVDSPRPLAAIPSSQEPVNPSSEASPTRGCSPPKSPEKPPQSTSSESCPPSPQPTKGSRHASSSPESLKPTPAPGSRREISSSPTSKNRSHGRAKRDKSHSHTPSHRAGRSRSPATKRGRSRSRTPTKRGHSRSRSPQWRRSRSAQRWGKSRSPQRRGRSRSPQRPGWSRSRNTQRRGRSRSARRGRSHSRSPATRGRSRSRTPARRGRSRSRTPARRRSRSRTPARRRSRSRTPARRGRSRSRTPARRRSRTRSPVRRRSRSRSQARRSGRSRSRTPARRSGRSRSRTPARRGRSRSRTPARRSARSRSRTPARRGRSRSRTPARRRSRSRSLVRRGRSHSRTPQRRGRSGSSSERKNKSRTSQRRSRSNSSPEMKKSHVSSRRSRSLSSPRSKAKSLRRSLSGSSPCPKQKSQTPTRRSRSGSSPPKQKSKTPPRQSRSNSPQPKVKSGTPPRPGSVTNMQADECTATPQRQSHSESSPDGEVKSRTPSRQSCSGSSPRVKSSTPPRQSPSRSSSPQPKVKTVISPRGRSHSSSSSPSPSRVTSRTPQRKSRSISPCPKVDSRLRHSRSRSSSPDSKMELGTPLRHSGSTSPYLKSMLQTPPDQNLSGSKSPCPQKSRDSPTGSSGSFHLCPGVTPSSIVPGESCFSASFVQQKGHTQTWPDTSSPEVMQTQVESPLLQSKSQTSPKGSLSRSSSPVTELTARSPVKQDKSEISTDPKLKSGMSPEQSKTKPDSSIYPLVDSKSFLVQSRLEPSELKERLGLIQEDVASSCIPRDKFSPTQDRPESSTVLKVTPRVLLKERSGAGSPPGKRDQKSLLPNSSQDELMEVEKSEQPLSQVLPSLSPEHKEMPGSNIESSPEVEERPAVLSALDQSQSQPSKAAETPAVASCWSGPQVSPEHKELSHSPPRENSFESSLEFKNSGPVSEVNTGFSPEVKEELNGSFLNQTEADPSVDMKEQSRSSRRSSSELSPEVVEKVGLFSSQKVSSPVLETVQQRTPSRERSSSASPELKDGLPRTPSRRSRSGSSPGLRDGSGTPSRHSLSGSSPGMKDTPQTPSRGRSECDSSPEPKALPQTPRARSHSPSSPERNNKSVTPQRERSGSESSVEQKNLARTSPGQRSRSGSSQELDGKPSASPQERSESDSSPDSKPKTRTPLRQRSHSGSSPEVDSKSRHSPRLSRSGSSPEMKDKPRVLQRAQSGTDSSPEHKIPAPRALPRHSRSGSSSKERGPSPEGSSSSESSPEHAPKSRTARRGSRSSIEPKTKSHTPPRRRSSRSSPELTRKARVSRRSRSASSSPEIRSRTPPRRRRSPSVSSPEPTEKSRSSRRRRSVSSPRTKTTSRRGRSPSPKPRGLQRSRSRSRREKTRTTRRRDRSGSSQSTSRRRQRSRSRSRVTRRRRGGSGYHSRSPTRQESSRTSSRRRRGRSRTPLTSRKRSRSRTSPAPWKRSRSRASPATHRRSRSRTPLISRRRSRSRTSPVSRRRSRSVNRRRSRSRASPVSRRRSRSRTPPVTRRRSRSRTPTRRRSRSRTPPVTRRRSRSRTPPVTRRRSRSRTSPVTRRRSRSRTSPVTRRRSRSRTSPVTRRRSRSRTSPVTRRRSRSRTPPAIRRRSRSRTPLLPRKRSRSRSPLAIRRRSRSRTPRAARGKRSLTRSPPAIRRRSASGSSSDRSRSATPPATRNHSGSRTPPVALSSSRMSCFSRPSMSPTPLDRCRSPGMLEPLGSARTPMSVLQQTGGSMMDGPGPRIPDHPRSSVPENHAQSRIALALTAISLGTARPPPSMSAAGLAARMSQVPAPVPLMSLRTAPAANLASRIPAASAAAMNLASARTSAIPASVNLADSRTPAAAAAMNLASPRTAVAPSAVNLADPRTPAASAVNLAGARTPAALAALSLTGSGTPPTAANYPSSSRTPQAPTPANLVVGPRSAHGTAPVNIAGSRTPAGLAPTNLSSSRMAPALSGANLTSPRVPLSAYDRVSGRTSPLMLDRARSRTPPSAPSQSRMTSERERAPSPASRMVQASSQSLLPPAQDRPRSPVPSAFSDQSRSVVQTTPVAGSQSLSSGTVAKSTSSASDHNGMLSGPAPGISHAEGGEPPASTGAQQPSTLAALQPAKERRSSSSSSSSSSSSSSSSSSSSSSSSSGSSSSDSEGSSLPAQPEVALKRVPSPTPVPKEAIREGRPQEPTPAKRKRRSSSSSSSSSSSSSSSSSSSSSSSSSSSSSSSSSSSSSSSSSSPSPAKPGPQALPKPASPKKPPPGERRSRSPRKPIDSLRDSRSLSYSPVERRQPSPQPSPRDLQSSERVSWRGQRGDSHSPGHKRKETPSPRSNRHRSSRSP

Results are given in words; binding and its absence hold for the method and conditions named. Binding seen in cells or lysates may run through a third protein. Here binding means that the protein was enriched with, or labelled near, the bait; the list need not be complete.

B1: hnRNP-F (protein, UniProt Q9Z2X1 1-415)
chain: MMLGPEGGEGYVVKLRGLPWSCSIEDVQNFLSDCTIHDGVAGVHFIYTREGRQSGEAFVELESEDDVKLALKKDRESMGHRYIEVFKSHRTEMDWVLKHSGPNSADSANDGFVRLRGLPFGCTKEEIVQFFSGLEIVPNGITLPVDPEGKITGEAFVQFASQELAEKALGKHKERIGHRYIEVFKSSQEEVRSYSDPPLKFMSVQRPGPYDRPGTARRYIGIVKQAGLDRMRSGAYSAGYGGYEEYSGLSDGYGFTTDLFGRDLSYCLSGMYDHRYGDSEFTVQSTTGHCVHMRGLPYKATENDIYNFFSPLNPVRVHIEIGPDGRVTGEADVEFATHEEAVAAMSKDRANMQHRYIELFLNSTTGASNGAYSSQVMQGMGVSAAQATYSGLESQSVSGCYGAGYSGQNSMGGYD

The target of the assay is TOBF1-GFP (BAC tagged TOBF1-GFP mES cell line) (mouse) (UniProt A2AG58). Kind of assay: affinity purification with mass spectrometry.
On to EIF4A3 (from UniProt Q91VC3 1-411), for which the binding result is reported as “binds”.

As for RALY (from UniProt Q64012 1-312), the binding entry was “binds”.

Consider SON (from UniProt Q9QX47 1-2444), for which the binding entry is listed as “binds”.

For SRRM2 (from UniProt Q8BTI8 1-2703), the binding entry is on record as “binds”.

In the case of hnRNP-K (from UniProt P61979 1-463), the binding result is recorded as “binds”.

For B1, the binding entry is reported as “binds”.
